# Test results: PubChem BioAssay AID662 (National Center for Advancing Translational Sciences (NCATS), 2007)
# The list shows a part of the results. These are further read-outs of the screen, such as a control signal, another cell line or another target. No call is given for them. The list favours compounds with an active or inconclusive main result. The note in brackets gives the kind of curve behind each potency; many fits are weak.
# Experiment: Cell signaling CRE-BLA (Fsk stim)
# Conditions: CHO CRE-bla reporter (cAMP response element driving beta-lactamase), forskolin EC10, beta-lactamase ratio; measured here: 460 nm blue channel
# Procedure, shortened: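 Titrated compounds plus EC10 NKH 477 on CHO CRE-bla cells, 3 h, 37 °C. CCF4, 2 h RT. Ratio 460/530 nm → AC50.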
row,Compound,AC50
1,COCCn1c(=O)c(-c2ccc(OC)cc2)nc2cnc(Nc3cccc(OC)c3)nc21,"2 µM [rising, full curve]"
2,CN1CCN(c2ncc3nc(-c4ccccc4)c(=O)n(Cc4cccs4)c3n2)CC1,"10 µM [rising, partial curve]"
3,Cc1nc2cccc(C(=O)NCc3ccccc3)c2o1,"0.00398 µM [falling, full curve]"
4,O=C(CSc1nnc2scc(-c3ccccc3)n12)Nc1nsc(-c2ccc(Cl)cc2)n1,"1.26 µM [rising, partial curve]"
5,CCOC(=O)C1CCCN(C(=O)Cc2c(F)cccc2Cl)C1 (centres undefined),"25.1 µM [falling, single point]"
6,CSc1nsc(SCC(=O)N2CCN(c3ccccc3)CC2)n1,"0.1 µM [falling, full curve]"
7,CCNc1ncc2nc(-c3cccs3)c(=O)n(CCC#N)c2n1,"10 µM [rising, partial curve]"
8,Cc1nc2oc3c(NCC4CCCO4)ncnc3c2c2c1COC(C)(C)C2 (centres undefined),"10 µM [rising, partial curve]"
9,CCOC(=O)N1CCC(NC(=O)C2CCN(S(=O)(=O)c3cccs3)CC2)CC1,"0.158 µM [falling, full curve]"
10,Cc1onc(-c2ccccc2)c1C(=O)Nc1sc2c(c1C(N)=O)CCC2,"10 µM [rising, partial curve]"
11,Cc1c(/C(O)=C2\C(=O)C(=O)N(CCCN(C)C)C2c2ccncc2)cnn1-c1ccccc1 (centres undefined),"25.1 µM [rising, single point]"
12,O=P(c1ccccc1)(c1ccccc1)C(c1ccco1)N1CCOCC1 (centres undefined),"0.126 µM [falling, full curve, poor fit]"
13,Cc1nc(CSc2nnc3scc(-c4ccc(Cl)cc4)n23)cs1,"10 µM [rising, partial curve]"
14,O=S(=O)(c1ccccc1)c1ccc(NCc2ccco2)cc1,"0.02 µM [rising, full curve]"
15,CCOC(=O)c1ccc(N2C(=O)c3n[nH]c(C)c3C2c2ccccc2)cc1 (centres undefined),"0.0251 µM [falling, partial curve]"
16,c1cnc2c(SCc3ccc(-c4nnco4)cc3)cccc2c1,"2.51 µM [rising, partial curve]"
17,CC(=O)Nc1c(C(=O)N2CCOCC2)sc2nc3c(cc12)COC(C)(C)C3,"10 µM [rising, single point]"
18,CCSC(C)CC1C/C(=N/O)c2c(CC)noc2C1 (centres undefined),"25.1 µM [rising, single point]"
19,O=C(NCCCN1CCOCC1)c1ccc(Br)cc1,"0.251 µM [rising, full curve, poor fit]"
20,O=S(=O)(c1cccc(-c2nnc(SC(F)F)n2-c2ccccc2)c1)N1CCCCC1,"10 µM [rising, partial curve]"
21,CCOC(=O)c1cnc2c(C(=O)OC)cccc2c1NCc1ccco1,"7.94 µM [rising, partial curve]"
22,CCN(CC)CCn1c2ccccc2c2cnc(N=CN(C)C)c(C#N)c21,"12.6 µM [rising, partial curve]"

row,Compound,AC50
1,Cc1sc2ncnc(SCC(=O)N3CCCC3=O)c2c1C,"10 µM [rising, partial curve]"
2,COc1ccc(CCNc2oc(-c3ccc(C)cc3)nc2C#N)cc1OC,"3.16 µM [rising, full curve]"
3,N#Cc1nc(Cc2cccc3ccccc23)oc1NCc1ccco1,"2.51 µM [rising, single point]"
4,O=S(=O)(c1cccc(-c2cn3cc(Cl)ccc3n2)c1)N1CCOCC1,"3.98 µM [rising, single point]"
5,c1ccc2c(-n3ccnc3)nc(-c3ccoc3)nc2c1,"10 µM [rising, partial curve]"
6,Cc1cc(=O)oc2cc(O)cc(O)c12,"12.6 µM [rising, partial curve]"
7,CCCCn1c2nc3ccccc3nc2c2c(=O)n(CCC)cnc21,"1 µM [rising, full curve, poor fit]"
8,O=c1[nH]cnc2nn(-c3ccccc3)nc12,"10 µM [rising, single point]"
9,O=c1c(-c2ccccc2)nc2cncnc2n1C1CC1,"12.6 µM [rising, partial curve]"
10,CCN(CC)c1nc2ccccc2n2cnnc12,"12.6 µM [rising, partial curve]"
11,COc1ccc(C2C=C(c3ccc(C)c(C)c3)Nc3ncnn32)c(OC)c1OC (centres undefined),"12.6 µM [rising, partial curve]"
12,CCOC(=O)CCP(=O)(O)C(O)c1ccc(OC)cc1 (centres undefined),"2.51 µM [rising, full curve, poor fit]"
13,CCC(SC1=Nc2ccccc2C2=NC(CC(C)C)C(=O)N12)C(=O)Nc1ccc2c(c1)OCO2 (centres undefined),"10 µM [rising, partial curve]"
14,CC(C)CC(=O)Nc1cccc(-c2nc3ccccc3o2)c1,"25.1 µM [rising, single point]"
15,CC(C)[C@H](NC(=O)OC(C)(C)C)c1nnc(S(=O)(=O)Cc2c(F)cccc2Cl)o1,"1 µM [falling, full curve]"
16,Cc1ccc(-n2c(=O)c3sccc3n(CC(=O)N3CCCC3)c2=O)cc1,"0.251 µM [falling, full curve]"
17,Cc1ccc2c(CC(=O)OCc3nc(N)nc(Nc4ccccc4C)n3)coc2c1,"3.16 µM [falling, single point]"
18,CCC[C@@H]1C[C@@]1(CCC)C(NS(=O)(=O)c1cccc2cccnc12)c1ccc(Cl)cc1 (some centres undefined),"5.01 µM [falling, single point]"
19,COc1ccccc1C(OC(=O)c1cccs1)C(=O)NCc1ccco1 (centres undefined),"0.1 µM [falling, full curve, poor fit]"
20,COCC(=O)Nc1nc(-c2ccccc2)c(C)s1,"5.01 µM [rising, partial curve, poor fit]"
21,CCN(CC)c1ccc2c(C)cc(=O)oc2c1,"25.1 µM [rising, partial curve]"
22,Cc1ccccc1C(=O)Nc1ccc2nc3n(c(=O)c2c1)CCC3,"10 µM [rising, partial curve]"

# Quoted at random: 3 records from the list
row,Compound,AC50
22,Cc1ccccc1C(=O)Nc1ccc2nc3n(c(=O)c2c1)CCC3,"10 µM [rising, partial curve]"
16,Cc1ccc(-n2c(=O)c3sccc3n(CC(=O)N3CCCC3)c2=O)cc1,"0.251 µM [falling, full curve]"
21,CCN(CC)c1ccc2c(C)cc(=O)oc2c1,"25.1 µM [rising, partial curve]"
